{"source": "PubChem BioAssay AID1347426", "about": "(Functional Genomics Laboratory (NCATS/FGL), 2020)", "note": "In all, about 31,000 sequences went through this assay and about 1,400 (4.5%) were called active.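 How the source made its calls: active means median seed-adjusted z-score above 1 or below -1; inactive means the rest.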 Some of the results follow."}
{"assay": "Novel Modifiers of Survival Motor Neuron (SMN) Protein: Gene Identification via Genome-wide siRNA Screen;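 further: luminescence tracks full-length SMN protein made from the SMN2 reporter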", "details": "HEK293T SMN2-luciferase reporter, siRNA knockdown, 72 h; actives lie on both sides", "how_it_was_run": "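Steps: spot 1 pmol siRNA, add Lipofectamine RNAiMax in serum-free DMEM, seed HEK293T SMN2–luciferase reporter cells; incubate 72 h at 37 °C; add ONE-Glo; normalize luminescence to control siRNA, log10, MAD. Candidates: |MAD| > 1.0.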"}
{"sequence": "GGAACCGUCUUGUCAAUGATT against SLITRK2", "median seed-adjusted z-score": "inactive: -0.246"}
{"sequence": "CCCUUUCACCCUGAAUAUATT against SERPINA9", "median seed-adjusted z-score": "inactive: 0.497"}
{"sequence": "GCCUGUCCCUAGCAUUGUUTT against CES2", "median seed-adjusted z-score": "inactive: -0.47"}
{"sequence": "CCACACCAUUAUGACCAUUTT against FUT1", "median seed-adjusted z-score": "inactive: 0.000845"}
{"sequence": "CUCAAACUCUGGAACCUGATT against USP18", "median seed-adjusted z-score": "inactive: -0.326"}
{"sequence": "GGACCAAGCCCUAAAGGAATT against 4-Sep", "median seed-adjusted z-score": "inactive: -0.0124"}
{"sequence": "GGAUGUCGCAUCAAUAAUATT against CNGB3", "median seed-adjusted z-score": "inactive: 0.226"}
{"sequence": "CCAAUCUCCUGAAACAUCATT against ZFP41", "median seed-adjusted z-score": "inactive: 0"}
{"sequence": "GAAGCAGUGCCAAUGAACATT against TCEB2", "median seed-adjusted z-score": "active: 1.28"}
{"sequence": "CCUAGUCUCUCGUAUCCCATT against ENPP6", "median seed-adjusted z-score": "inactive: -0.548"}
{"sequence": "CUACCAGUCUGCUUAGUUUTT against ALG6", "median seed-adjusted z-score": "inactive: 0.106"}
{"sequence": "GUCUCUUAAAGUUCGAGAATT against KIF13A", "median seed-adjusted z-score": "inactive: 0"}
{"sequence": "CACCGGCCUUUAUUCCACATT against DNPEP", "median seed-adjusted z-score": "inactive: -0.293"}
{"sequence": "GGAUCUCAUAGACCGAGGATT against ATE1", "median seed-adjusted z-score": "inactive: 0.569"}
{"sequence": "GGAUGCUACAUUGAUUUUUTT against FKBP7", "median seed-adjusted z-score": "inactive: -0.053"}
{"sequence": "CGGCUUUUGCUAUGACCAATT against SERPINC1", "median seed-adjusted z-score": "inactive: -0.0822"}
{"sequence": "GAGGAAUACUAGUAAACAATT against EIF3H", "median seed-adjusted z-score": "inactive: 0.449"}
{"sequence": "GAUCGUUUCCUAUACAGUATT against ESPL1", "median seed-adjusted z-score": "inactive: 0.871"}
{"sequence": "CAUUUGUCGUGUAUGAAAATT against GPR63", "median seed-adjusted z-score": "inactive: -0.0154"}
{"sequence": "CGACUGAACAAACCCUAUATT against ERCC3", "median seed-adjusted z-score": "inactive: 0.155"}
{"sequence": "ACAGGCCUGUGAAACCCUATT against PEX5", "median seed-adjusted z-score": "inactive: -0.0414"}
{"sequence": "GGAUGACUAAACAUAAGAATT against CCBL2", "median seed-adjusted z-score": "inactive: 0.184"}
{"sequence": "CCAUCUACAAGUGUCCUUATT against ZNF276", "median seed-adjusted z-score": "inactive: 0.318"}
{"sequence": "CGACCCUCAGAAUGAUAAATT against ARPC3", "median seed-adjusted z-score": "inactive: -0.237"}
{"sequence": "GAGCUGACCCUGAACAUUATT against ITGAE", "median seed-adjusted z-score": "inactive: -0.0378"}
{"sequence": "GAAUGGAAGUAAUGAUUCUTT against TMPO", "median seed-adjusted z-score": "inactive: -0.0406"}
{"sequence": "CUGCAGAAGCGAUGCGAUATT against NAP1L5", "median seed-adjusted z-score": "inactive: 0.115"}
{"sequence": "GAACAAGCCUACUGCUAUATT against TKTL2", "median seed-adjusted z-score": "inactive: -0.0379"}
{"sequence": "GACGGCCUCUAUUACCUCUTT against LTB", "median seed-adjusted z-score": "inactive: 0.646"}
{"sequence": "CGGUCACUCUUGCCCAGAUTT against RHBDL1", "median seed-adjusted z-score": "inactive: -0.365"}
{"sequence": "GGCGUGAGGUUUUUGACUATT against NFE2L1", "median seed-adjusted z-score": "inactive: 0.689"}
{"sequence": "CAGUAUAUCGAUUCUCGUUTT against NCOA3", "median seed-adjusted z-score": "inactive: -0.594"}
{"sequence": "GCAUAUCUGCUGAUGAUGATT against RDBP", "median seed-adjusted z-score": "inactive: 0.975"}
{"sequence": "GGAGGUAUCUAACAAGAUUTT against LPO", "median seed-adjusted z-score": "inactive: 0.201"}
{"sequence": "GGAGUUAUGCAGCUAAUUATT against SLC7A11", "median seed-adjusted z-score": "inactive: -0.182"}
{"sequence": "GGUAUGGAUUUAACAGUCATT against DHODH", "median seed-adjusted z-score": "inactive: -0.422"}
{"sequence": "GCACCUAUGAGUUCGGCAATT against SLC25A39", "median seed-adjusted z-score": "inactive: -0.111"}
{"sequence": "GCACUGUAGCAUACCUGUATT against GINS1", "median seed-adjusted z-score": "inactive: -0.224"}
{"sequence": "GCAUUGCUGCAGACAGAUUTT against PCDH20", "median seed-adjusted z-score": "inactive: 0.0594"}
{"sequence": "CCUGGUCCGUGAUAGCAAATT against AQP7", "median seed-adjusted z-score": "inactive: 0.0827"}
{"sequence": "CUCGGUCAGUGGACUCUUATT against ATF6", "median seed-adjusted z-score": "inactive: 0.26"}
{"sequence": "CAGCCUUACUCAAUUUGUATT against EFS", "median seed-adjusted z-score": "inactive: -0.299"}
{"sequence": "GGCUGCUCAUCGAAAAGUATT against PLCB3", "median seed-adjusted z-score": "inactive: 0"}
{"sequence": "GAUUGGGCUCUAUACAUUUTT against NPY5R", "median seed-adjusted z-score": "inactive: 0.213"}
{"sequence": "GAAUGUUCUCAACCGGAAATT against DRD1", "median seed-adjusted z-score": "inactive: -0.508"}
{"sequence": "GAUUAUAAGUAUCUACGUUTT against GTPBP4", "median seed-adjusted z-score": "active: 1.01"}
{"sequence": "CCGCUGCACUACAAUCUGATT against TRHDE", "median seed-adjusted z-score": "inactive: 0.429"}
{"sequence": "CCCUUUUACUAUUCAGCGATT against PPP4R2", "median seed-adjusted z-score": "inactive: 0.211"}
{"sequence": "GGACCAUAGGAUUACAACUTT against HOXA1", "median seed-adjusted z-score": "inactive: 0"}
{"sequence": "CACCAGCUAUAUGAAACUATT against DCTN2", "median seed-adjusted z-score": "inactive: 0.339"}
{"sequence": "GGAUCUUAGGGAAGCAGCATT against ATG4A", "median seed-adjusted z-score": "inactive: -0.288"}
{"sequence": "GGCUUAAAGACAUUGAACATT against KLHL1", "median seed-adjusted z-score": "inactive: 0.067"}
{"sequence": "UGCUGUCCGAGGAAACCUATT against MIP", "median seed-adjusted z-score": "inactive: 0.702"}
{"sequence": "GCAUUUCUACGAUCCUGAATT against GPT2", "median seed-adjusted z-score": "inactive: 0.0268"}
{"sequence": "GGUUGGUAAUUCUGACUGUTT against SYCP1", "median seed-adjusted z-score": "inactive: -0.0197"}
{"sequence": "CCGUUACUGUUGCUGCCUATT against PTPRF", "median seed-adjusted z-score": "inactive: 0.413"}
{"sequence": "GGAUGAAGCCUCCGACUAATT against MERTK", "median seed-adjusted z-score": "inactive: 0.369"}
{"sequence": "CAGUGGUCCUAUUUCUAAATT against SCML1", "median seed-adjusted z-score": "inactive: 0.575"}
{"sequence": "GCACGUCACUGUGGUUGUATT against THNSL2", "median seed-adjusted z-score": "inactive: 0"}
{"sequence": "CCUUCCCUCAGGUACUAAATT against THEX1", "median seed-adjusted z-score": "inactive: -0.423"}
{"sequence": "ACUUUGCAAUGAAAGGAAATT against POLE3", "median seed-adjusted z-score": "inactive: -0.0612"}
{"sequence": "AGAUGUACAAGGACCGCAUTT against CARD9", "median seed-adjusted z-score": "inactive: -0.325"}
{"sequence": "GAAUCACGCUCGGAAACAATT against NCOR2", "median seed-adjusted z-score": "inactive: -0.305"}
{"sequence": "GCUAUCAACUUACAGUACATT against ZNF30", "median seed-adjusted z-score": "inactive: -0.0208"}
{"sequence": "CAAUGUUACUGAUGCGGAUTT against CASQ1", "median seed-adjusted z-score": "inactive: -0.0307"}
{"sequence": "AGACAUCUAUUAUCUGCUUTT against FOXD2", "median seed-adjusted z-score": "inactive: -0.0853"}
{"sequence": "CCAGGACACUCACCCAGAATT against GMPPA", "median seed-adjusted z-score": "inactive: 0.619"}
{"sequence": "GCUAUGGUAGUGCAGAUUATT against FLG", "median seed-adjusted z-score": "inactive: 0.221"}
{"sequence": "CAGGUUUUCUACAACAACATT against ABCA2", "median seed-adjusted z-score": "active: -1.18"}
